Data: article PMC9911748
No constants are given. Whether binding was seen depends on the method and setting. Binding seen in cells or lysates may run through a third protein. Some binding calls cover weakened binding; strength is not graded here.

By UniProt entry, the sequences of proteins in these tests, tags left out. Where a name states a change or a piece, a line headed by the entry shows the natural chain unless it says otherwise.
UniProt Q02447: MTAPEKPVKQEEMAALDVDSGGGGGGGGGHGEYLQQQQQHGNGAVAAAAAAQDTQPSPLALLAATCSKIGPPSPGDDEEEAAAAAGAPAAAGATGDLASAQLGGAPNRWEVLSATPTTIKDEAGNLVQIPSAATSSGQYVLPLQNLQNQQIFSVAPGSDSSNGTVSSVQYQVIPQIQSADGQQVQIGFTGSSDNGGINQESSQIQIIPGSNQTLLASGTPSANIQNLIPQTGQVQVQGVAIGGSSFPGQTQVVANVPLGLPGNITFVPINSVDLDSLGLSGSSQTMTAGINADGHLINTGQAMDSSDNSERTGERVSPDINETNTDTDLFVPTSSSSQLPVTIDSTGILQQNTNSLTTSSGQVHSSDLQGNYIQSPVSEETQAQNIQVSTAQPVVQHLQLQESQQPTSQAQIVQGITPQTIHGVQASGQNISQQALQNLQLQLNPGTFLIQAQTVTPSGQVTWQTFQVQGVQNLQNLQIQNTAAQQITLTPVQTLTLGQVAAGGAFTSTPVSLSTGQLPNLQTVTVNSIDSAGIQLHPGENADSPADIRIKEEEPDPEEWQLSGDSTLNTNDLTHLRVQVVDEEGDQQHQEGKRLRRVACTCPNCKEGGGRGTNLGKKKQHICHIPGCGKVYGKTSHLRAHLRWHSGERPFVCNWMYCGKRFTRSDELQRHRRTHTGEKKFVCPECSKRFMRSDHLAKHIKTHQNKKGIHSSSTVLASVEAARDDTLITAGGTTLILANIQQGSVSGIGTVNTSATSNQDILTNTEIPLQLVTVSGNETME
UniProt P08047: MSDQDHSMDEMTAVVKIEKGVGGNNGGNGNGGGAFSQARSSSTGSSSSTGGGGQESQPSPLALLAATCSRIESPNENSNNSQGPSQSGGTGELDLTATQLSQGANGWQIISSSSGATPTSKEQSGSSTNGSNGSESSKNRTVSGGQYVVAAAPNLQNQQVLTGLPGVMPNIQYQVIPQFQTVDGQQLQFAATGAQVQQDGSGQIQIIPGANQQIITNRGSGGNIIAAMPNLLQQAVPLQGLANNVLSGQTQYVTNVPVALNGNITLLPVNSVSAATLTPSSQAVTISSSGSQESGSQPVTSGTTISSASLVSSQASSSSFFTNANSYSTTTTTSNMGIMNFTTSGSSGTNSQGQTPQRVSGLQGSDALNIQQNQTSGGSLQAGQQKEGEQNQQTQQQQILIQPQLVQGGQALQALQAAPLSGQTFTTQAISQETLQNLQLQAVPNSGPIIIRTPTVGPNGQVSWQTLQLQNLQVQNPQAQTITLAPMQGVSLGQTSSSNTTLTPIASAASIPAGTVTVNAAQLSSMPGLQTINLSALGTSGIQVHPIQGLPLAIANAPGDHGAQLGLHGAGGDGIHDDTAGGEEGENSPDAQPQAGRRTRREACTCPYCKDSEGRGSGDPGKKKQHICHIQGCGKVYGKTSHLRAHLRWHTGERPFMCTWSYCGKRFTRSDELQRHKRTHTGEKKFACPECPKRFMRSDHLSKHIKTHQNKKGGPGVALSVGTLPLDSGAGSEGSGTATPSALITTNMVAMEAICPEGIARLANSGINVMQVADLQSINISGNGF
UniProt Q93009: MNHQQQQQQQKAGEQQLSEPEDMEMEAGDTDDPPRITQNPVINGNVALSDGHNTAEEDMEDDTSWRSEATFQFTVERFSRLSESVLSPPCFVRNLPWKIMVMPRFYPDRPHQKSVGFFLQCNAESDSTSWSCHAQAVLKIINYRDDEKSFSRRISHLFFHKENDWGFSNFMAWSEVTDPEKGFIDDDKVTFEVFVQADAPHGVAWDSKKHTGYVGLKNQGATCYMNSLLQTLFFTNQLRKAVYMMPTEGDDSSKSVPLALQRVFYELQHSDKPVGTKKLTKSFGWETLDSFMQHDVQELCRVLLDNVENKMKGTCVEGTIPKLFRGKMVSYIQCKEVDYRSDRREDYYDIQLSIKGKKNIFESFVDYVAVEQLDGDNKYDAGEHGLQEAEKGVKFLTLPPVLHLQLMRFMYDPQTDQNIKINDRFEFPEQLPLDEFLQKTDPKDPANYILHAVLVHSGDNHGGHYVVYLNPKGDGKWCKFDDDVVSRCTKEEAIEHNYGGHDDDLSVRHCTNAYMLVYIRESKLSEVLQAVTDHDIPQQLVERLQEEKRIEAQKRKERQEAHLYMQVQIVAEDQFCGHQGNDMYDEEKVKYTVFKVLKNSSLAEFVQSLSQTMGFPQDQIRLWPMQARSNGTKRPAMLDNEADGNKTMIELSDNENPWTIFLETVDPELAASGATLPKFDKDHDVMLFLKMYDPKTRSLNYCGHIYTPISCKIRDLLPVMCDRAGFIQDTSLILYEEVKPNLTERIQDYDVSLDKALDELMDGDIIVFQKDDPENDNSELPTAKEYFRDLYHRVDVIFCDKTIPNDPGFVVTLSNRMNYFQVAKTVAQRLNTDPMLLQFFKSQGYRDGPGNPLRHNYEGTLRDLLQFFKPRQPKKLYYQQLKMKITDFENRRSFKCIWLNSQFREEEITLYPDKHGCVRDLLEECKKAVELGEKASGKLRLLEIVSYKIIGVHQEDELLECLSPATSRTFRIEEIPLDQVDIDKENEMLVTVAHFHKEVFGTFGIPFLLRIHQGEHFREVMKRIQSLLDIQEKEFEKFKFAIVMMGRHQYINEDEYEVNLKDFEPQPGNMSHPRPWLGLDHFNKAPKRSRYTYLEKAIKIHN

Experiments:
[1] = target: Sp3 (human (endogenous in HUVECs)) (UniProt Q02447); assay: co-IP; nuclear subcellular fractions of HUVECs treated with ACEI for up to 90 min, CTR siRNA or HDAC1 siRNA; anti-Sp1 or anti-Sp3 immunoprecipitation, western blot for USP7
[2] = target: Sp1 (human (endogenous in HUVECs)) (UniProt P08047); assay: as above
[3] = target: Sp3 (human (endogenous in HUVECs)) (UniProt Q02447); assay: co-IP; HUVECs treated with ACEI; anti-Sp1 or anti-Sp3 immunoprecipitation, western blot for USP7; IP lysis buffer, protein A/G magnetic beads
[4] = target: Sp1 (human (endogenous in HUVECs)) (UniProt P08047); assay: as above
Flag-Sp1-K703A = Flag-Sp1-K703A (UniProt P08047); assay: co-IP; HUVECs ectopically expressing Flag-Sp1-WT, Flag-Sp1-K703A, Flag-Sp3-WT or Flag-Sp3-K551R, with or without ACEI; anti-Flag immunoprecipitation, western blot for USP7
Flag-Sp3-K551R = Flag-Sp3-K551R (UniProt Q02447); assay: as above
Flag-Sp3 = Flag-Sp3 (UniProt Q02447); assay: co-IP; HEK293T cells co-transfected with Flag-Sp1 or Flag-Sp3 and Myc-USP7 deletion mutants; IP lysis buffer, protein A/G magnetic beads, western blot
Flag-Sp1 = Flag-Sp1 (UniProt P08047); assay: as above

binding [1]	binding [2]	binding [3]	binding [4]	binding (Flag-Sp1-K703A)	binding (Flag-Sp3-K551R)	binding (Flag-Sp3)	binding (Flag-Sp1)	Substance
binds	binds	binds	binds	binds	binds			USP7 (from UniProt Q93009 1-1102) (enzyme)
						binds	binds	Myc-USP7 (from UniProt Q93009 1-1102) (enzyme)
